Experimental data reported in patent publication US20150291675A1 (published 2015).
No constants are given. Whether binding was seen depends on the method and setting. Some entries that bind do so weakly or less than the wild type.

T1: cynomolgus Hepcidin-25 (cynomolgus) (UniProt A7XEI3)
T1 sequence (peptide): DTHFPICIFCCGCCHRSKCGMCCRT


Assays:
[1] = molecular target: T1, cynomolgus Hepcidin-25 (cynomolgus); assay: direct ELISA, hepcidin captured via Neutravidin
[2] = molecular target: lipocalin mutein of SEQ ID NO: 1, linked to albumine-binding domain (ABD) (SEQ ID NO: 15); assay: competition ELISA, non-biotinylated human hepcidin titrated against constant mutein; compared with SEQ ID NO: 1

Binder | binding [1] | binding [2]
lipocalin mutein of SEQ ID NO: 1 (designed binder, also called hNGAL mutein; Lcn2 mutein; not shown: C-terminal Strep-tag II encoded by phNGAL98) QDSTSDLIPAPPLSKVPLQQNFQDNQFHGKWYVVGLAGNEVLREDKDPMKMWATIYELEEDKSYNVTIVMFLAKKCEYLFQTFVPGSQPGEFTLGDIKSSPGRTSGLVRVVSTNYNQHAMVFFKTVWQNREVFWITLYGRTKELTSELKENFIRFSKSLGLPENHIVFPVPIDQCIDG | binds | 
lipocalin mutein of SEQ ID NO: 8 (designed binder, Purified with C-terminal Strep-tag II; also called hNGAL mutein; Lcn2 mutein; not shown: C-terminal Strep-tag II encoded by phNGAL98) QDSTSDLIPAPPLSKVPLQQNFQDNQFHGKWYVVGLAGNEVLREDKDPMKMWATIYELKEDKSYNVTIVMPLAEKCEYLFQTFVPGSQPGEFTLGGIKSGPGRTSGLVRVVSTNYNQHAMVFFKVVWQNREVFWVTLYGRTKELTSELKENFIRFSKSLGLPENHIVFPVPIDQCIDG | binds | 
lipocalin mutein of SEQ ID NO: 9 (designed binder, Purified with C-terminal Strep-tag II; also called hNGAL mutein; Lcn2 mutein; not shown: C-terminal Strep-tag II encoded by phNGAL98) QDSTSDLIPAPPLSKVPLQQNFQDNQFHGKWYVVGLAGNEVLREDKDPMKMWATIYELKEDKSYNVTIVMSLAKKCEYLFQTFVPGSQPGEFTLGDIKSSPGRTSGLVRVVSTNYNQHAMVFFKVVWQNREVFWITLYGRTKELTSGLKENFIRFSKSLGLPENHIVFPVPIDQCIDG | binds | 
lipocalin mutein of SEQ ID NO: 11 (designed binder, Purified with C-terminal Strep-tag II; also called hNGAL mutein; Lcn2 mutein; not shown: C-terminal Strep-tag II encoded by phNGAL98) QDSTSDLIPAPPLSKVPLQQNFQDNQFHGKWYVVGLAGNEILREDKDPMKMWATIYELKEDKSYNVTIVMFLAKKCEYLFQTFVPGSQPGEFTLGDIKSSPGRTSGLVRVVSTNYNQHAMVFFKVVWQNREVFWITLYGRTKELTSGLKENFIRFSKSLGLPENHIVFPVPIDQCIDG | binds | 
lipocalin mutein of SEQ ID NO: 12 (designed binder, Purified with C-terminal Strep-tag II; also called hNGAL mutein; Lcn2 mutein; not shown: C-terminal Strep-tag II encoded by phNGAL98) QDSTSDLIPAPPLSKVPLQQNFQDNQFHGKWYVVGLAGNEVLREDKDPMKMWATIYELKEDKSYNVTIVMFLAEECEYLFQTFVPGSQPGEFTLGDIKSSPGRTSGLVRVVSTNYNQHAMVFFKVVWQNREVFWITLYGRTKELTSELKKNFIRFSKSLGLPENHIVFPVPIDQCIDG | binds | 
lipocalin mutein of SEQ ID NO: 2 (designed binder, Purified with C-terminal Strep-tag II; also called hNGAL mutein; Lcn2 mutein; not shown: C-terminal Strep-tag II encoded by phNGAL98) QDSTSDLIPAPPLSKVPLQQNFQDNQFHGKWYVVGTAGNSILREDKDPQKMWATIYELKEDKSYNVTRVFFEGKKCRYVIETFVPGSQPGEFTLGKIKSAPGGTSILVRVVSTNYNQHAMVFFKVVWQNRELFWITLYGRTKELTSELKENFIRFSKSLGLPENHIVFPVPIDQCIDG | binds | 
lipocalin mutein of SEQ ID NO: 3 (designed binder, Purified with C-terminal Strep-tag II; also called hNGAL mutein; Lcn2 mutein; not shown: C-terminal Strep-tag II encoded by phNGAL98) QDSTSDLIPAPPLSKVPLQQNFQDNQFHGKWYVVGVAGNGLLREDKDPLKMHATIYELKEDKSYNVTRVLFVRKKCRYYISTFVPGSQPGEFTLGRIKSEPGRTSFLVRVVSTNYNQHAMVFFKMVWQNREVFWITLYGRTKELTSELKENFIRFSKSLGLPENHIVFPVPIDQCIDG | binds | 
lipocalin mutein of SEQ ID NO: 4 (designed binder, Purified with C-terminal Strep-tag II; also called hNGAL mutein; Lcn2 mutein; not shown: C-terminal Strep-tag II encoded by phNGAL98) QDSTSDLIPAPPLSKVPLQQNFQDNQFHGKWYVVGVAGNEMLREDKDPLKMLATIYELKEDKSYNVTRVMFEYKKCVYLIETFVPGSQPGEFTLGTIKSVPGLTSGLVRVVSTNYNQHAMVFFKRVWQNREVFWITLYGRTKELTSELKENFIRFSKSLGLPENHIVFPVPIDQCIDG | binds | 
lipocalin mutein of SEQ ID NO: 6 (designed binder, Purified with C-terminal Strep-tag II; also called hNGAL mutein; Lcn2 mutein; not shown: C-terminal Strep-tag II encoded by phNGAL98) QDSTSDLIPAPPLSKVPLQQNFQDNQFHGKWYVVGLAGNEILREDKDPLKMWATIYELKEDKSYNVTRVQFGEKKCGYGIETFVPGSQPGEFTLGSIKSVPGGTSRLVRVVSTNYNQHAMVFFKFVWQNREVFWITLYGRTKELTSELKENFIRFSKSLGLPENHIVFPVPIDQCIDG | binds | 
lipocalin mutein of SEQ ID NO: 5 (designed binder, Purified with C-terminal Strep-tag II; also called hNGAL mutein; Lcn2 mutein; not shown: C-terminal Strep-tag II encoded by phNGAL98) QDSTSDLIPAPPLSKVPLQQNFQDNQFHGKWYVVGAAGNSLLREDKDPMKMWATIYELKEDKSYNVTRVNFGGKKCSYLIETFVPGSQPGEFTLGSIKSRPGATSVLVRVVSTNYNQHAMVFFKLVTQNREVFWITLYGRTKELTSELKENFIRFSKSLGLPENHIVFPVPIDQCIDG | binds | 
lipocalin mutein of SEQ ID NO: 7 (designed binder, Purified with C-terminal Strep-tag II; also called hNGAL mutein; Lcn2 mutein; not shown: C-terminal Strep-tag II encoded by phNGAL98) QDSTSDLIPAPPLSKVPLQQNFQDNQFHGKWYVVGLAGNRVLREDKDPQKMFATIYELKEDKSYNVTGVDFRTKKCLYSIGTFVPGSQPGEFTLGVIKSQPGWTSYLVRVVSTNYNQHAMVFFKTVWQNREVFWITLYGRTKELTSELKENFIRFSKSLGLPENHIVFPVPIDQCIDG | binds | 
lipocalin mutein of SEQ ID NO: 10 (designed binder, Purified with C-terminal Strep-tag II; also called hNGAL mutein; Lcn2 mutein; not shown: C-terminal Strep-tag II encoded by phNGAL98) QDSTSDLIPAPPLSKVPLQQNFQDNQFHGKWYVVGLAGNEILREDKDPMKMWATIYELKEDRSYNVTIVMFLAKKCEYLFQTFVPGSQPGEFTLGDIKSSPGRTSGLVRVVSTNYNQHAMVFFKVVWQNREVFWITLYGRTKELTPELKENFIRFSKSLGLPENHIVFPVPIDQCIDGF | binds | 
lipocalin mutein of SEQ ID NO: 13, linked to PEG40 (designed binder, not shown: small tags and cut ends, branched 40 k PEG-maleimide on the free Cys at position 87) QDSTSDLIPAPPLSKVPLQQNFQDNQFHGKWYVVGLAGNEVLREDKDPMKMWATIYELKEDKSYNVTIVMPLAEKCEYLFQTFVPGCQPGEFTLGGIKSGPGRTSGLVRVVSTNYNQHAMVFFKVVWQNREVFWVTLYGRTKELTSELKENFIRFSKSLGLPENHIVFPVPIDQCIDG | binds | 
lipocalin mutein of SEQ ID NO: 14, linked to PEG40 (designed binder, not shown: small tags and cut ends, branched 40 k PEG-maleimide on the free Cys at position 87) QDSTSDLIPAPPLSKVPLQQNFQDNQFHGKWYVVGLAGNEVLREDKDPMKMWATIYELEEDKSYNVTIVMFLAKKCEYLFQTFVPGCQPGEFTLGDIKSSPGRTSGLVRVVSTNYNQHAMVFFKTVWQNREVFWITLYGRTKELTSELKENFIRFSKSLGLPENHIVFPVPIDQCIDG | binds | 
lipocalin mutein of SEQ ID NO: 1, linked to albumine-binding domain (ABD) (SEQ ID NO: 15) (designed binder) QDSTSDLIPAPPLSKVPLQQNFQDNQFHGKWYVVGLAGNEVLREDKDPMKMWATIYELEEDKSYNVTIVMFLAKKCEYLFQTFVPGSQPGEFTLGDIKSSPGRTSGLVRVVSTNYNQHAMVFFKVVWQNREVFWITLYGRTKELTSELKENFIRFSKSLGLPENHIVFPVPIDQCIDGSAGAVDANSLAEAKVLANRELDKYGVSDYYKNLINNAKTVEGVKALIDEILAALPSAWSHPQFEK | binds | 
DTHFPICIFCCGCCHRSKCGMCCKT [synthetic non-modified human Hepcidin-25] |  | binds
